Measured values reported in article PMC6331526.
These are yes or no findings as the source states them, for the method shown. For some assays here: Binding seen in cells or lysates may run through a third protein. Some results given as binding are weak or reduced against the parent protein; the word gives no strength. Where a sequence is shown, tags or fusion partners need not be part of it. Values belong to the binder of their own block, whether it stands above or below them.

Assays:
[1] = molecular target: T1, NTCP, myc-tagged (myc-NTCP) and HA-tagged (HA-NTCP) copies co-expressed in HepG2 cells (human) (UniProt Q14973); test: proximity ligation; HepG2 cells overexpressing myc-NTCP and HA-NTCP, with preS1, with an excess amount of NTCP fragment peptide added as decoy; loss of myc-HA PLA signal; only the binder purified
T1 sequence: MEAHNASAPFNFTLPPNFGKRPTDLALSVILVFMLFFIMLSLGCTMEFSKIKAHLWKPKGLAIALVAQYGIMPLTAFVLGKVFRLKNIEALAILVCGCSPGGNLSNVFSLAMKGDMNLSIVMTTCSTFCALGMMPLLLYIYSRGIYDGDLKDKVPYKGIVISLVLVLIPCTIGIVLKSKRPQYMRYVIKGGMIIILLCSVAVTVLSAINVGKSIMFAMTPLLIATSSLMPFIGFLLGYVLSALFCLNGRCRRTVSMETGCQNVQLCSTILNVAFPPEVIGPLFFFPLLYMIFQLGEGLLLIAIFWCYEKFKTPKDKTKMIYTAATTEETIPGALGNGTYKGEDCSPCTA

[2] = molecular target: T2, NTCP(221-240) peptide (human) (UniProt Q14973); test: pull-down; biotinylated peptides immobilized on streptavidin-agarose beads, incubated with recombinant His-NTCP at 4°C for 4 h; coprecipitated His-NTCP detected by immunoblot with anti-His antibody; both purified
T2 sequence (peptide, biotin (position not stated)): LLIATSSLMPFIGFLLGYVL

[3] = molecular target: T3, NTCP(271-290) peptide (human) (UniProt Q14973); test: as above
T3 sequence (peptide, biotin (position not stated)): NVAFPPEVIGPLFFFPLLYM

[4] = molecular target: T2, NTCP(221-240) peptide (human); test: SPR; NTCP peptide-immobilized chip; nominally dose-dependent responses (Figure S4); conditions not shown; both purified
[5] = molecular target: T3, NTCP(271-290) peptide (human); test: as above
[6] = molecular target: T1, NTCP, myc-tagged (myc-NTCP) and HA-tagged (HA-NTCP) copies co-expressed in HepG2 cells (human); test: proximity ligation; HepG2 cells transiently expressing both myc-NTCP and HA-NTCP, without preS1 probe; anti-myc and anti-HA antibodies, Duolink PLA
[7] = molecular target: T1, NTCP, myc-tagged (myc-NTCP) and HA-tagged (HA-NTCP) copies co-expressed in HepG2 cells (human); test: proximity ligation; HepG2 cells transiently expressing both myc-NTCP and HA-NTCP, treated with preS1 probe for 30 min at 4°C; anti-myc and anti-HA antibodies, Duolink PLA

Binder: NVAFPPEVIGPLFFFPLLYM (peptide, UniProt Q14973 271-290, biotin (position not given)) [NTCP(271-290) peptide]
binding [1]: binds

Binder: LLIATSSLMPFIGFLLGYVL (peptide, UniProt Q14973 221-240, biotin (position not given)) [NTCP(221-240) peptide]
binding [1]: binds

Second part, the binder after the results:

binding [2]: binds | binding [3]: binds | binding [4]: binds | binding [5]: binds
B1: Recombinant full-length NTCP protein tagged with His (His-NTCP) (protein, UniProt Q14973 1-349)
chain: MEAHNASAPFNFTLPPNFGKRPTDLALSVILVFMLFFIMLSLGCTMEFSKIKAHLWKPKGLAIALVAQYGIMPLTAFVLGKVFRLKNIEALAILVCGCSPGGNLSNVFSLAMKGDMNLSIVMTTCSTFCALGMMPLLLYIYSRGIYDGDLKDKVPYKGIVISLVLVLIPCTIGIVLKSKRPQYMRYVIKGGMIIILLCSVAVTVLSAINVGKSIMFAMTPLLIATSSLMPFIGFLLGYVLSALFCLNGRCRRTVSMETGCQNVQLCSTILNVAFPPEVIGPLFFFPLLYMIFQLGEGLLLIAIFWCYEKFKTPKDKTKMIYTAATTEETIPGALGNGTYKGEDCSPCTA

binding [6]: binds weakly | binding [7]: binds
B2: NTCP, myc-tagged (myc-NTCP) and HA-tagged (HA-NTCP) copies co-expressed in HepG2 cells (receptor, UniProt Q14973 1-349)
chain: MEAHNASAPFNFTLPPNFGKRPTDLALSVILVFMLFFIMLSLGCTMEFSKIKAHLWKPKGLAIALVAQYGIMPLTAFVLGKVFRLKNIEALAILVCGCSPGGNLSNVFSLAMKGDMNLSIVMTTCSTFCALGMMPLLLYIYSRGIYDGDLKDKVPYKGIVISLVLVLIPCTIGIVLKSKRPQYMRYVIKGGMIIILLCSVAVTVLSAINVGKSIMFAMTPLLIATSSLMPFIGFLLGYVLSALFCLNGRCRRTVSMETGCQNVQLCSTILNVAFPPEVIGPLFFFPLLYMIFQLGEGLLLIAIFWCYEKFKTPKDKTKMIYTAATTEETIPGALGNGTYKGEDCSPCTA
